From US10952999B2, “Inhibitor of cyclin-dependent kinase CDK9” (GENFLEET THERAPEUTICS (SHANGHAI) INC., priority 2017, dated 2021)

What was measured:
Experiment in all cases: Cancer cell growth, Cell Titer-Glo cell viability assay, 72 hours
Format in all cases: cell-based
[1] = test system: human small cell lung cancer cell H209; details: NCI-H209, H209, 72 hours
Source text: (§1) In the examples, we used acute myelocytic leukemia (AML) OCI-AML-3, acute promyelocytic leukemia cell line NB-4, MDS-RAEB (myelodysplastic syndrome-excess blasts type) cell line SKM-1, human leukemia cell Nomo-1, acute myeloid leukemia cell line MOLM14, acute myeloid leukemia cell line MOLM13, acute myeloid leukemia cell line MV4-11, acute myeloid leukemia cell line HL-60, acute myeloid leukemia cell line OCI-AML-2, histiocytic lymphoma U-937, acute B cell leukemia cell line MEC-1, acute B cell leukemia cell line MEC-2, acute megakaryoblastic leukemia CMK, hamster lung cell CHL, hamster ovary cell CHO, human non-small cell lung cancer cell H1975, human non-small cell lung cancer cell H358, human small cell lung cancer cell H209, human lung adenocarcinoma cell H1395, human non-small cell lung cancer cell PC-9, human lung cancer cell H3122, human non-small cell lung cancer cell H2122, human non-small cell lung cancer cell H1915, human lung adenocarcinoma cell H1355, human non-small cell lung cancer cell HCC827, human breast cancer cell MDA-MB-231, human breast cancer cell MDA-MB-468, human breast cancer cell MCF-7, human breast cancer cell T47D, human breast cancer cell SK-Br-3, the above cells were purchased from ATCC.
(§2) Cell Titer-Glo® (Promega, USA) chemical self-luminescence cell viability assay kit was used to detect the number of viable cells by quantitatively measuring ATP in living cells, according to which to calculate GI50 and IC50.

[2] = test system: human non-small cell lung cancer cell H2122; details: NCI-H2122, H2122, 72 hours
Source text: as §1, §2

[3] = test system: human breast cancer cell MDA-MB-231; details: MDA-MB-231, 72 hours
Source text: as §1, §2

[4] = test system: human non-small cell lung cancer cell HCC827; details: HCC827, 72 hours
Source text: as §1, §2

[5] = test system: human non-small cell lung cancer cell H1975; details: NCI-H1975, H1975, 72 hours
Source text: as §1, §2

[6] = test system: human breast cancer cell MDA-MB-468; details: MDA-MB-468, 72 hours
Source text: as §1, §2

[7] = test system: human lung adenocarcinoma cell H1395; details: NCI-H1395, H1395, 72 hours
Source text: as §1, §2

[8] = test system: human non-small cell lung cancer cell H1915; details: NCI-H1915, H1915, 72 hours
Source text: as §1, §2

[9] = test system: human lung adenocarcinoma cell H1355; details: NCI-H1355, H1355, 72 hours
Source text: as §1, §2

[10] = test system: human non-small cell lung cancer cell H358; details: NCI-H358, H358, 72 hours
Source text: as §1, §2

[11] = test system: human breast cancer cell SK-Br-3; details: SK-Br-3, 72 hours
Source text: as §1, §2

[12] = test system: human breast cancer cell MCF-7; details: MCF7, MCF-7, 72 hours
Source text: as §1, §2

[13] = test system: human lung cancer cell H3122; details: NCI-H3122, H3122, 72 hours
Source text: as §1, §2

[14] = test system: human non-small cell lung cancer cell PC-9; details: PC-9, 72 hours
Source text: as §1, §2

[15] = test system: human breast cancer cell T47D
Source text: as §1, §2

IC50 [1]: 0.077 µM | IC50 [2]: 0.039 µM | IC50 [3]: 0.063 µM | IC50 [4]: 0.028 µM | IC50 [5]: 0.029 µM | IC50 [6]: 0.013 µM | IC50 [7]: 0.056 µM | IC50 [8]: 0.023 µM | IC50 [9]: 0.025 µM | IC50 [10]: 0.043 µM | IC50 [11]: 0.015 µM | IC50 [12]: 0.0082 µM | IC50 [13]: 0.011 µM | IC50 [14]: 0.013 µM | IC50 [15]: 0.054 µM
SMILES: CCc1cnn2c(NCc3ccc[n+]([O-])c3)cc(N3CCCC[C@H]3CCO)nc12 [Dinaciclib, reference compound]
